# Reference: patent US6660833B1 (Harbor-UCLA Research and Education Institute, priority 2000, dated 2003)
# How the values were obtained:
# [1] = general procedure: Fmoc solid-phase peptide synthesis; prederivatized Fmoc-Gly resin (Calbiochem-Nova) or PEG-PA resin (Perceptive Biosystems); HBTU (FastMoc); conditions: oxidative folding step, on monomer (SEQ ID NO:3), estimated by electrospray MS, freeze dried twice from acetonitrile:10 mM HCl to remove acetate counterions
# [2] = Circular Dichroism (CD) determination of secondary structure in membrane mimic environments; assay type: physicochemical
# Method: Circular Dichroism (CD) measurements are made with an AVIV 62DS spectropolarimeter (AVIV Associates, Lakewood, N.J.). The AVIV 62DS is fitted with a thermoelectric temperature controller and the sample temperature maintained at 25° C. Peptide-solvent solutions are measured in 0.1 mm light path demountable cells scanned from 250 nm to 195 nm at a rate of 10 nm/min and a sample interval of 0.2 nm. The instrument is routinely calibrated with (+)-10-camphorsulfonic acid (1 mg/ml) and a 1-mm path length cell (Johnson, 1990 Johnson, W. C. J. 1990, “Protein Secondary Structure and Circular Dichroism: A Practical Guide.” Proteins Struct. Funct. Genet. 7:205-214, and the ellipticity expressed as the mean residue ellipticity, θMRE (deg cm^2 dmol^−1). Peptide sample concentrations are determined by quantitative amino acid analysis (UCLA Micro Sequencing Facility, Los Angeles, Calif. The percentage of α-helix conformation in the peptide is estimated using the formalism of Chen et al. Chen YH, Yant JT, Chaus KH. 1974. “Determination of the Helix and β Form of Proteins in Aqueous Solution by Circular Dichroism.” Biochemistry 13:3350-3359. This approach assumes the maximum theoretical ellipticity for a given peptide or protein at 222 nm may be derived from the number of amino acid residues n, and the ellipticity at 222 nm of a helix of infinite length described by Equation (1).
# The secondary structure of the SP-B1-25 (Cys-11→Ala-11) variant disulfide linked homodimer is accessed in two different structure promoting membrane mimic environments using Circular Dichroism spectroscopy.
# Referring to FIG. 6, when the peptide is added to POPG liposomes (a major lipid component of surfactant lipid) the helical component is similar to that observed in the organic solvent system. […] [Lincomb Perczel, A., Park, K., Fasman, G. D., Analysis of the circular dichroism spectrum of proteins using the convex constraint algorithm: A practical guide. Analytical Biochem 203:83-93, 1992] [Compare Perez-Gil, J., A. Cruz, Casals, C. Solubility of hydrophobic surfactant Structural studies on SP-B and SP-C in aqueous organic solvents and lipids. Biochim. Biophys Acta, 1168:261-270, 1993; Bruni, R., Taeusch, W., and Waring, A., “Surfactant protein SP-B: Lipid interactions of synthetic peptides representing the amino terminal amphipathic domain,” Proc. Nat. Acad. Sci. USA, 88:7451-7455 (1991); Gordon, L. M., Horvath S., Longo, M., Zasadzinski, J. A. N., Taeusch, H. W., Faull, K., Leung, C., and Waring, A. J., “Conformation and molecular topography of the N-terminal segment of surfactant protein B in structure-promoting environments,” Protein Science 5:1662-1675 (1996)].
# [3] = POPG surfactant lipid liposomes, FIG. 6
substance,measurement,setting,value
SP-B1-25 (Cys-11→Ala-11) variant disulfide linked homodimer (FPIPLPYCWLARALIKRIQAMIPKG; disulfide-linked homodimer via Cys8; (11)..(11) SP-B 1-25 (Cys-11 > Ala-11) variant; listed as Homo sapiens),oxidative folding yield,[1],essentially 100%
"SP-B1-25 dimer: Synthetic dimer of N-terminal residues 1-25 of human SP-B, Cys 11→Ala 11 variant, disulfide linked at Cys8-Cys8 (FPIPLPYCWLARALIKRIQAMIPKG; disulfide-linked homodimer via Cys8; (11)..(11) SP-B 1-25 (Cys-11 > Ala-11) variant; listed as Homo sapiens)",beta sheet (deconvolution of CD spectra),[2]; [3],~17.1%
same,beta turn (deconvolution of CD spectra),[2]; [3],~28.2%
same,disordered conformations (deconvolution of CD spectra),[2]; [3],~10.0%
same,helix (deconvolution of CD spectra),[2]; [3],about 44.7%
same,"helical conformations (ellipticity at 222 nm, formalism of Chen et al.)","[2]; TFE:phosphate buffer, 1:1, v:v, 25° C., FIG. 5",about 41%
